Where two headings read alike, the source gives them in different places. No constants are given. Whether binding was seen depends on the method and setting. In cells and extracts the contact can be indirect. A yes stands for co-enrichment or nearness to the bait. Other partners may have been found. Tags and fused reporters may be left off the sequences shown.

The chains behind the UniProt entries cited, without tags or fusion partners.
UniProt P36873: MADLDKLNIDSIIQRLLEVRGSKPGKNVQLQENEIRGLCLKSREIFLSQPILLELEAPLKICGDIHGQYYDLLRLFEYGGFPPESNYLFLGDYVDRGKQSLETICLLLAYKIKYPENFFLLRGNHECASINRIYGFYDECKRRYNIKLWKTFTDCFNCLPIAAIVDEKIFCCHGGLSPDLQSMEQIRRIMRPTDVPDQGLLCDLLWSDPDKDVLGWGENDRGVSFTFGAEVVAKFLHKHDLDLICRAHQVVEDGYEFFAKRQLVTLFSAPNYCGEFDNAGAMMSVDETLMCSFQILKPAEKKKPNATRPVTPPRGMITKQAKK
UniProt Q96GY3: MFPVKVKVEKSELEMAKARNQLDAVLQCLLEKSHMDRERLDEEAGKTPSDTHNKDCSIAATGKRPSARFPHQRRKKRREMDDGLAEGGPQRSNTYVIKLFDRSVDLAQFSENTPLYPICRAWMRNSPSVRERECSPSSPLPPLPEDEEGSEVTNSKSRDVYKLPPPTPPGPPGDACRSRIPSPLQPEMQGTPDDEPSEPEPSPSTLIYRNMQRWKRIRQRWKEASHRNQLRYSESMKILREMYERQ
UniProt Q00403: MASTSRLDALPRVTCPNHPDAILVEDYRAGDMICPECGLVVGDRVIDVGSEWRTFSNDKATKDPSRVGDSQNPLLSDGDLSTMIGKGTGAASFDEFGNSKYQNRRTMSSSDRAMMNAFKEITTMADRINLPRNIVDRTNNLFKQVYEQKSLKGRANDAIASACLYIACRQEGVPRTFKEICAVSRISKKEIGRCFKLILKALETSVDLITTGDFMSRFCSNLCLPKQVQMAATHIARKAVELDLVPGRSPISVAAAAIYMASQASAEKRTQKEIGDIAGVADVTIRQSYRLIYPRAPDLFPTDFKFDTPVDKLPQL
UniProt Q6MZP7: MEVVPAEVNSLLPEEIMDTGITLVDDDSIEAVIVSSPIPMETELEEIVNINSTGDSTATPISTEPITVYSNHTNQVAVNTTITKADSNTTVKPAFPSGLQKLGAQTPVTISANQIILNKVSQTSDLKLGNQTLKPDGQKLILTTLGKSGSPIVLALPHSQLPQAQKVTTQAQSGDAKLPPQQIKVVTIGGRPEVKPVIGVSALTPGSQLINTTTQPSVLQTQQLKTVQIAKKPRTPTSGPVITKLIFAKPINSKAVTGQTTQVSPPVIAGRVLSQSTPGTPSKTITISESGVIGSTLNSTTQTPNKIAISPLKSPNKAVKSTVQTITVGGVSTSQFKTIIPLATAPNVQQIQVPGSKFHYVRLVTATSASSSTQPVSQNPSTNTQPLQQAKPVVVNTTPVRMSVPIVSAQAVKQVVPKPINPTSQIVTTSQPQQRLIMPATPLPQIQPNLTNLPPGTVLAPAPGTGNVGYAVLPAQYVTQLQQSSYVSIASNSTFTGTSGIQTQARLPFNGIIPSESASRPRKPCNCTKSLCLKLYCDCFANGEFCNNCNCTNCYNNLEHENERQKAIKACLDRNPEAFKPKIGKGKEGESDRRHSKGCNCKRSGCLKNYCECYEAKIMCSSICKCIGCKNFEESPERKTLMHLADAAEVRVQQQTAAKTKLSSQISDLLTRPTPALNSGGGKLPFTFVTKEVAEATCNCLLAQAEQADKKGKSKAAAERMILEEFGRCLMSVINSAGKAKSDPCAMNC
UniProt Q5TKA1: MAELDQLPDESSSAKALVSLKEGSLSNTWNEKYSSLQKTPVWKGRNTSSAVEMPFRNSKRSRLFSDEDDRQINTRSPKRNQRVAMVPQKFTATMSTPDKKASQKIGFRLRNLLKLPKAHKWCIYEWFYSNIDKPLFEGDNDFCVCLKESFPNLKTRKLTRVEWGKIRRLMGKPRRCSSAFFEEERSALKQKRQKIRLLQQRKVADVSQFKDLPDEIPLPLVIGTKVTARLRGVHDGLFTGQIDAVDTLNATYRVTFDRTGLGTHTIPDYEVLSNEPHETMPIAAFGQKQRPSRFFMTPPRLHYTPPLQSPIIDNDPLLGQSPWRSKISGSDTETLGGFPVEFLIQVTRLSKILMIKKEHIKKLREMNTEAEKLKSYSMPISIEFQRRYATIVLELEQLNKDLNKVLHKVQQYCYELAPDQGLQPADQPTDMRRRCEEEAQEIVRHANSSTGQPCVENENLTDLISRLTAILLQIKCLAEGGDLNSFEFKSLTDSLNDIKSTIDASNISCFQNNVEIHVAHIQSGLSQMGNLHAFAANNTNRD
UniProt P10244: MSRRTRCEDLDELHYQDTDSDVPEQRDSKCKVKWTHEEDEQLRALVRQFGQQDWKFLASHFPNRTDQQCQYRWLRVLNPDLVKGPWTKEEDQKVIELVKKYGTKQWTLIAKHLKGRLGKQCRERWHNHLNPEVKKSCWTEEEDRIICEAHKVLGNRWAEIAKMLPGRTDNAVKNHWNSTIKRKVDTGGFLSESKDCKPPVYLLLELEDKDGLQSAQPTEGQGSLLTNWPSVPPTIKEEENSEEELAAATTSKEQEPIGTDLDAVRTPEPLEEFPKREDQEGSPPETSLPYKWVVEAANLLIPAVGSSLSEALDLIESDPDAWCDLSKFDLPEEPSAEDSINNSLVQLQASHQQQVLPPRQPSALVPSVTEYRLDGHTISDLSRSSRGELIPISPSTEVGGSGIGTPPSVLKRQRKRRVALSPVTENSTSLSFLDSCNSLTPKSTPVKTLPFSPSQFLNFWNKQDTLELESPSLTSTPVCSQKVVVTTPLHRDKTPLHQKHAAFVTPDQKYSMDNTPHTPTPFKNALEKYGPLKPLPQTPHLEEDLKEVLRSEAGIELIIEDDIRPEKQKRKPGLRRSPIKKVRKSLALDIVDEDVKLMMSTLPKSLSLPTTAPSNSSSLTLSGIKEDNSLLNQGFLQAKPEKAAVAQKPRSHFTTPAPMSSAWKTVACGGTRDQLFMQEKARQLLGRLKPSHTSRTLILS

Holding throughout (test): affinity purification with mass spectrometry; RIME: HEK293 cells expressing GFP only, GFP-FOXM1 WT or GFP-FOXM1 R286A cross-linked with 1 % formaldehyde for 7 min; sonicated chromatin lysate immunoprecipitated with anti-GFP antibody (ab290) on protein G Dynal beads, washed 10X with RIPA buffer; LC-MS/MS; proteins found in the GFP only cell line not considered
Assay [1] concerns the target T1, GFP-FOXM1B wild type (human) (UniProt Q08050).
T1 sequence: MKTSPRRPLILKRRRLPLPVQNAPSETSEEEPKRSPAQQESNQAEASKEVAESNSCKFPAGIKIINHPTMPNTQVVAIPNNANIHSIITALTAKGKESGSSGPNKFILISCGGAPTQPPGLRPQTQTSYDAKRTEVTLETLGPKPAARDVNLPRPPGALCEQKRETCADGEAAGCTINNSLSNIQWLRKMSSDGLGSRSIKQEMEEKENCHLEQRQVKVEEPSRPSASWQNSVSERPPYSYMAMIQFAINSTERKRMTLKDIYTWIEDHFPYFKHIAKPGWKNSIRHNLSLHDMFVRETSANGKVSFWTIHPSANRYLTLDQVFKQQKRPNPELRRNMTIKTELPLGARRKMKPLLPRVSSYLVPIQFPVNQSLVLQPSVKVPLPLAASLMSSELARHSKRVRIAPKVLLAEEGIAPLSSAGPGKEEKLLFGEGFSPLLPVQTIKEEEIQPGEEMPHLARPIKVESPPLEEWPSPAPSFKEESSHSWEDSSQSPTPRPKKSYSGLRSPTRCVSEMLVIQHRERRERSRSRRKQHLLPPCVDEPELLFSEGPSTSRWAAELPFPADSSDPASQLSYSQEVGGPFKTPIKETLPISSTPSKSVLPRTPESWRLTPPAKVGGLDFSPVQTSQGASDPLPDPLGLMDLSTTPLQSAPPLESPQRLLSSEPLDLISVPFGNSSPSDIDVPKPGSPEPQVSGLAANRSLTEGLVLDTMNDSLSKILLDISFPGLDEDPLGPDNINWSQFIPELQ

Assay [2] addresses T2, GFP-FOXM1B R286A (human) (UniProt Q08050).
T2 sequence: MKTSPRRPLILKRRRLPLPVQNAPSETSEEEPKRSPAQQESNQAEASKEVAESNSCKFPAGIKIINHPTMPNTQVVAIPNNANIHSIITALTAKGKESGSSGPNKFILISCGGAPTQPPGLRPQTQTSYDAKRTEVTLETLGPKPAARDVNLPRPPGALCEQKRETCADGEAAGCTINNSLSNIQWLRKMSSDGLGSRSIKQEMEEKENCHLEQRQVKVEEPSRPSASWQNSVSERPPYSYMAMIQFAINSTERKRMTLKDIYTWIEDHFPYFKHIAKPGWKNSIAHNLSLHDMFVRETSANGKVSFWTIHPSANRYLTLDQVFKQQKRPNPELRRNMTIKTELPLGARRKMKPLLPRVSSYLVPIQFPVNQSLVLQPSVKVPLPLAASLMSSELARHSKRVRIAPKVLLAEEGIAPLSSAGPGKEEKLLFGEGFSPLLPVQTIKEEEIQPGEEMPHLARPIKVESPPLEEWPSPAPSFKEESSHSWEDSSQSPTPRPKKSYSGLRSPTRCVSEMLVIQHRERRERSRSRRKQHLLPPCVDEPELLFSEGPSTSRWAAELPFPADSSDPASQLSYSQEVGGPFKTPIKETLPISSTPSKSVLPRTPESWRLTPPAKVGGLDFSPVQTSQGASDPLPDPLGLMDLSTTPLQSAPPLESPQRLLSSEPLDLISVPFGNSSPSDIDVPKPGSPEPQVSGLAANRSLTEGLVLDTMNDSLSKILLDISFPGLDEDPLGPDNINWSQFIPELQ

For assay [3], the target named is T1, GFP-FOXM1B wild type (human). This is another data set of the same source.

“PP1G (from UniProt P36873 1-323) (enzyme)”: in assay [1], the binding entry is “binds”. As to LIN37 (from UniProt Q96GY3 1-246), the binding entry in assay [2] and in assay [1] was “binds” each time. “general transcription factor TF2B (from UniProt Q00403 1-316)”: the binding entry in assay [2] and in assay [1] was “binds” throughout. With LIN54 (from UniProt Q6MZP7 1-749), the binding entry in assay [2] and in assay [1] was “binds” throughout. With LIN9 (from UniProt Q5TKA1 1-542), the binding result in assay [2] and in assay [1] was “binds” in each case. B-MYB (from UniProt P10244 1-700): the binding result in assay [2] and in assay [1] was “binds” in each case.

B1: PPM1G (enzyme, UniProt O15355 1-546)
chain: MGAYLSQPNTVKCSGDGVGAPRLPLPYGFSAMQGWRVSMEDAHNCIPELDSETAMFSVYDGHGGEEVALYCAKYLPDIIKDQKAYKEGKLQKALEDAFLAIDAKLTTEEVIKELAQIAGRPTEDEDEKEKVADEDDVDNEEAALLHEEATMTIEELLTRYGQNCHKGPPHSKSGGGTGEEPGSQGLNGEAGPEDSTRETPSQENGPTAKAYTGFSSNSERGTEAGQVGEPGIPTGEAGPSCSSASDKLPRVAKSKFFEDSEDESDEAEEEEEDSEECSEEEDGYSSEEAENEEDEDDTEEAEEDDEEEEEEMMVPGMEGKEEPGSDSGTTAVVALIRGKQLIVANAGDSRCVVSEAGKALDMSYDHKPEDEVELARIKNAGGKVTMDGRVNGGLNLSRAIGDHFYKRNKNLPPEEQMISALPDIKVLTLTDDHEFMVIACDGIWNVMSSQEVVDFIQSKISQRDENGELRLLSSIVEELLDQCLAPDTSGDGTGCDNMTCIIICFKPRNTAELQPESGKRKLEEVLSTEGAEENGNSDKKKKAKRD
In the case of B1, the binding entry in assay [3] was “binds”.

B2: E3 Ubiquitin-Protein Ligase UHRF1 (enzyme, UniProt Q96T88 1-793)
chain: MWIQVRTMDGRQTHTVDSLSRLTKVEELRRKIQELFHVEPGLQRLFYRGKQMEDGHTLFDYEVRLNDTIQLLVRQSLVLPHSTKERDSELSDTDSGCCLGQSESDKSSTHGEAAAETDSRPADEDMWDETELGLYKVNEYVDARDTNMGAWFEAQVVRVTRKAPSRDEPCSSTSRPALEEDVIYHVKYDDYPENGVVQMNSRDVRARARTIIKWQDLEVGQVVMLNYNPDNPKERGFWYDAEISRKRETRTARELYANVVLGDDSLNDCRIIFVDEVFKIERPGEGSPMVDNPMRRKSGPSCKHCKDDVNRLCRVCACHLCGGRQDPDKQLMCDECDMAFHIYCLDPPLSSVPSEDEWYCPECRNDASEVVLAGERLRESKKKAKMASATSSSQRDWGKGMACVGRTKECTIVPSNHYGPIPGIPVGTMWRFRVQVSESGVHRPHVAGIHGRSNDGAYSLVLAGGYEDDVDHGNFFTYTGSGGRDLSGNKRTAEQSCDQKLTNTNRALALNCFAPINDQEGAEAKDWRSGKPVRVVRNVKGGKNSKYAPAEGNRYDGIYKVVKYWPEKGKSGFLVWRYLLRRDDDEPGPWTKEGKDRIKKLGLTMQYPEGYLEALANREREKENSKREEEEQQEGGFASPRTGKGKWKRKSAGGGPSRAGSPRRTSKKTKVEPYSLTAQQSSLIREDKSNAKLWNEVLASLKDRPASGSPFQLFLSKVEETFQCICCQELVFRPITTVCQHNVCKDCLDRSFRAQVFSCPACRYDLGRSYAMQVNQPLQTVLNQLFPGYGNGR
B2: in assay [3], the binding entry was “binds”.

The record behind these values is article PMC4492089, “FOXM1 binds directly to non-consensus sequences in the human genome”.
